# Data as given in PubChem BioAssay AID652243 (Drosophila RNAi Screening Center, 2013)
# Test: 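Knock-downs that decrease or increase androgen receptor reporter signal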 (primary screen)
# Cell system: Drosophila S2R+ cells
# Knock-down reagent: long dsRNA against Drosophila genes
# Timing: 72 h (48 h, then 24 h hormone)
# Challenge: synthetic androgen R1881 at 10 nM for 24 h
# Measurement: 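Per-well raw luminescence of the androgen-driven firefly reporter and of the Renilla control, two replicates each, without normalisation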
# Reading the numbers: firefly reporter light: higher = more light from androgen-responsive reporter; Renilla control light: higher = more constitutive control signal (cell number, transfection)
# Hit rule: 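Hit when the log firefly-to-Renilla ratio dropped or increased by a fixed fold versus the mean of GFP or LacZ controls across duplicate plates; lowering cut given as 1.5 and as 3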
# Calls: active = hit: reporter lowered or raised; inactive = no hit
# The screen tested about 24,000 reagents; shown is an unselected part of those with a known target gene and a result. Over the whole deposit, 246 (1%) got an active call. 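Plates not normalised; calls are printed but the firefly/Renilla ratio behind them is not deposited; fold cut for lowering reported inconsistently.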 The raw values are shown without normalisation. Unmarked entries are inactive. A plus sign joins genes that one reagent is predicted to hit. Not stated in the record: the amount of reagent.
target,DRSC id,"firefly reporter light, replicate 1","firefly reporter light, replicate 2","Renilla control light, replicate 1","Renilla control light, replicate 2"
His1:CG33816 + His1:CG33828 + His1:CG33819 + 21 more,DRSC21266,2.41e5,2.23e5,4.22e5,3.56e5
Spn42Dd (Serpin 42Dd),DRSC05024,3.79e5,3.60e5,2.69e6,2.63e6
Spn42Dd (Serpin 42Dd),DRSC22060,9.43e5,8.30e5,2.13e6,2.08e6
CG43317,DRSC15000,2.30e5,2.24e5,1.97e6,2.07e6
eIF2Bdelta (eukaryotic translation initiation factor 2B subunit delta),DRSC04058,7.41e5,8.10e5,1.04e6,1.08e6
lap (like-AP180),DRSC12628,1.31e5,99823,4.80e5,4.84e5
lap (like-AP180),DRSC28215,8.57e5,1.40e6,1.45e6,1.76e6
mthl13 (methuselah-like 13),DRSC05238,2.13e5,98629,5.53e5,6.09e5
RpS10a (Ribosomal protein S10a),DRSC14161,1.23e5,1.10e5,1.06e6,9.77e5
RpS10a (Ribosomal protein S10a),DRSC26061,2.75e5,2.19e5,5.47e5,4.39e5
CG5466,DRSC23002,7.02e5,6.53e5,1.43e6,1.68e6
CG5466,DRSC25795,3.47e5,4.29e5,6.91e5,5.30e5
CG9328,DRSC03203,6.96e5,1.01e6,1.50e6,2.11e6
pk (prickle),DRSC06178,8.50e5,6.94e5,1.53e6,1.67e6
pk (prickle),DRSC07664,4.12e5,5.49e5,2.45e6,2.21e6
pk (prickle),DRSC24979,4.54e5,2.74e5,5.70e5,3.51e5
Rbp6 (RNA-binding protein 6),DRSC10072,2.38e5,2.31e5,2.23e6,2.30e6
Rbp6 (RNA-binding protein 6),DRSC10073,4.09e5,4.22e5,3.26e6,3.29e6
Rbp6 (RNA-binding protein 6),DRSC36532,7.94e5,7.87e5,1.61e6,1.56e6
Rbp6 (RNA-binding protein 6),DRSC36533,8.95e5,7.77e5,1.75e6,1.75e6
Sox14 (Sox box protein 14),DRSC04656,2.91e5,2.85e5,2.21e6,1.87e6
Sox14 (Sox box protein 14),DRSC27025,3.40e5,2.49e5,5.17e5,4.48e5
Grl43a (Gustatory receptor-like 43a),DRSC06383,2.41e5,1.75e5,1.40e6,9.02e5
CG8788,DRSC07267,3.67e5,2.67e5,2.16e6,1.65e6
CG5112,DRSC15718,1.11e5,67387,5.26e5,6.07e5
Spn42Da (Serpin 42Da),DRSC05025,2.53e5,2.05e5,1.88e6,1.46e6

2 entries already listed, sorted by “firefly reporter light, replicate 2”, ascending.
target,DRSC id,"firefly reporter light, replicate 1","firefly reporter light, replicate 2","Renilla control light, replicate 1","Renilla control light, replicate 2"
CG5112,DRSC15718,1.11e5,67387,5.26e5,6.07e5
Spn42Da (Serpin 42Da),DRSC05025,2.53e5,2.05e5,1.88e6,1.46e6

Next entries follow.
target,DRSC id,"firefly reporter light, replicate 1","firefly reporter light, replicate 2","Renilla control light, replicate 1","Renilla control light, replicate 2"
CG18810,DRSC02701,98920,82438,1.13e6,1.02e6
Mrp4 (Multidrug resistance protein 4),DRSC14931,1.64e5,1.66e5,2.63e6,2.52e6
Mrp4 (Multidrug resistance protein 4),DRSC28151,4.84e5,3.71e5,1.50e6,1.22e6
AkhR (Adipokinetic hormone receptor),DRSC03329,1.22e6,1.15e6,2.10e6,1.66e6
AkhR (Adipokinetic hormone receptor),DRSC28694,5.17e5,3.70e5,1.26e6,1.31e6
FoxK (Forkhead box K),DRSC24971,4.51e5,3.15e5,3.55e5,4.31e5
FeCH (Ferrochelatase),DRSC16948,86254,89752,1.13e6,7.92e5
FeCH (Ferrochelatase),DRSC27562,2.18e5,2.28e5,5.20e5,8.85e5
CG30273,DRSC22059,3.54e5,4.49e5,1.55e6,1.32e6
CG30273,DRSC25520,4.30e5,8.01e5,8.27e5,1.06e6
Wdr62 (WD repeat domain 62),DRSC00081,1.49e5,1.98e5,3.03e5,3.95e5
Wdr62 (WD repeat domain 62),DRSC21913,9.13e5,7.12e5,2.83e5,3.57e5
Wdr62 (WD repeat domain 62),DRSC36508,8.95e5,6.53e5,1.64e6,1.22e6
Wdr62 (WD repeat domain 62),DRSC36509,9.10e5,9.14e5,1.65e6,1.41e6
